Measured values from article PMC4674687.
No constants are given. Whether binding was seen depends on the method and setting.

Legend:
[1] = molecular target: T1, full-length human Sestrin2 (hSesn2), recombinant from E. coli (human), P58004; experiment: SEC-MALS; 60 μM hSesn2; WTC-050S5 SEC column; 30 mM HEPES (pH 8.0), 100 mM NaCl, 1 mM TCEP; both purified; settings: remark: other sources report otherwise
T1 chain: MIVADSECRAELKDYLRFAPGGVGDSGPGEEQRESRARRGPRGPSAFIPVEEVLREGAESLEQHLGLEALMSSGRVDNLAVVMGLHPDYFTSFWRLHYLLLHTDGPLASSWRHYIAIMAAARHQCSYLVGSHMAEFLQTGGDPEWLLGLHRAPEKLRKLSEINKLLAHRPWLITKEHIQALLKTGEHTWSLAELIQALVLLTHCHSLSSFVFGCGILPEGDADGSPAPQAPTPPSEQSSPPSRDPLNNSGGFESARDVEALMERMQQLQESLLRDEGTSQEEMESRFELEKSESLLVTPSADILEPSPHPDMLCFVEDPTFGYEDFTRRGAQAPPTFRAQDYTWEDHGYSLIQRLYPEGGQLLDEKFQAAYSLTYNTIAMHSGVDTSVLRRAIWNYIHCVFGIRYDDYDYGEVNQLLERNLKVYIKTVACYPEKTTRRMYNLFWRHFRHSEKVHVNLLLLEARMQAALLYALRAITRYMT

[2] = molecular target: T2, selenomethionine-substituted full-length human Sestrin2 (hSesn2-SeMet) (human), P58004; experiment: crystal structure; SeMet-substituted hSesn2, SAD, 3.5 Å, space group I23, five copies per asymmetric unit; 0.1 M MES (pH 6.5), 1.15 M sodium malonate; both purified; settings: remark: other sources report otherwise
T2 chain: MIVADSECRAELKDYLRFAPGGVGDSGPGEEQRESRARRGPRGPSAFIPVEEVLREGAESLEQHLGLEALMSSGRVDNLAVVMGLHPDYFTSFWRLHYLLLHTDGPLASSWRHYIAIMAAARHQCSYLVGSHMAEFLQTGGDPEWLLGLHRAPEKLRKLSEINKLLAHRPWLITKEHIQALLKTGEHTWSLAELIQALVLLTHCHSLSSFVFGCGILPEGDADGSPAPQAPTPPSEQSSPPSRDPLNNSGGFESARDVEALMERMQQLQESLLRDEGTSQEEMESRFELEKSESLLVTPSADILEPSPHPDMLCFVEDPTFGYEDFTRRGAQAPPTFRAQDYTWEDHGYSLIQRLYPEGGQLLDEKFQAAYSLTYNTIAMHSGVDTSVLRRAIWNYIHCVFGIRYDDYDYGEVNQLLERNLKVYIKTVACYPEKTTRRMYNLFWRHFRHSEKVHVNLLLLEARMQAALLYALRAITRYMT

B1: full-length human Sestrin2 (hSesn2), recombinant from E. coli, P58004 1-480 (protein)
chain: MIVADSECRAELKDYLRFAPGGVGDSGPGEEQRESRARRGPRGPSAFIPVEEVLREGAESLEQHLGLEALMSSGRVDNLAVVMGLHPDYFTSFWRLHYLLLHTDGPLASSWRHYIAIMAAARHQCSYLVGSHMAEFLQTGGDPEWLLGLHRAPEKLRKLSEINKLLAHRPWLITKEHIQALLKTGEHTWSLAELIQALVLLTHCHSLSSFVFGCGILPEGDADGSPAPQAPTPPSEQSSPPSRDPLNNSGGFESARDVEALMERMQQLQESLLRDEGTSQEEMESRFELEKSESLLVTPSADILEPSPHPDMLCFVEDPTFGYEDFTRRGAQAPPTFRAQDYTWEDHGYSLIQRLYPEGGQLLDEKFQAAYSLTYNTIAMHSGVDTSVLRRAIWNYIHCVFGIRYDDYDYGEVNQLLERNLKVYIKTVACYPEKTTRRMYNLFWRHFRHSEKVHVNLLLLEARMQAALLYALRAITRYMT
binding [1]: no binding (tested: 60 μM)

B2: selenomethionine-substituted full-length human Sestrin2 (hSesn2-SeMet), P58004 1-480 (protein)
chain: MIVADSECRAELKDYLRFAPGGVGDSGPGEEQRESRARRGPRGPSAFIPVEEVLREGAESLEQHLGLEALMSSGRVDNLAVVMGLHPDYFTSFWRLHYLLLHTDGPLASSWRHYIAIMAAARHQCSYLVGSHMAEFLQTGGDPEWLLGLHRAPEKLRKLSEINKLLAHRPWLITKEHIQALLKTGEHTWSLAELIQALVLLTHCHSLSSFVFGCGILPEGDADGSPAPQAPTPPSEQSSPPSRDPLNNSGGFESARDVEALMERMQQLQESLLRDEGTSQEEMESRFELEKSESLLVTPSADILEPSPHPDMLCFVEDPTFGYEDFTRRGAQAPPTFRAQDYTWEDHGYSLIQRLYPEGGQLLDEKFQAAYSLTYNTIAMHSGVDTSVLRRAIWNYIHCVFGIRYDDYDYGEVNQLLERNLKVYIKTVACYPEKTTRRMYNLFWRHFRHSEKVHVNLLLLEARMQAALLYALRAITRYMT
modifications: here or on the partner: selenomethionine in place of methionine (12 selenium sites per monomer); selenomethionine in place of methionine (12 selenium sites per monomer)
binding [2]: no binding
